From PubChem BioAssay AID1439 (NMMLSC, 2008)
The whole screen tested about 220,000 compounds, of which about 770 (0.35%) were called active. Inconclusive results, whose numbers are uncertain, are shown with a selection of clear calls. No stated cut-off is given here; in the data, active means binding response below about 49% or above about 150%; inconclusive means no clear call, values can overlap the other calls; inactive means in between.

Chains of the proteins cited; added tags and fusions are not shown.
UniProt P09471, whole entry, looked up: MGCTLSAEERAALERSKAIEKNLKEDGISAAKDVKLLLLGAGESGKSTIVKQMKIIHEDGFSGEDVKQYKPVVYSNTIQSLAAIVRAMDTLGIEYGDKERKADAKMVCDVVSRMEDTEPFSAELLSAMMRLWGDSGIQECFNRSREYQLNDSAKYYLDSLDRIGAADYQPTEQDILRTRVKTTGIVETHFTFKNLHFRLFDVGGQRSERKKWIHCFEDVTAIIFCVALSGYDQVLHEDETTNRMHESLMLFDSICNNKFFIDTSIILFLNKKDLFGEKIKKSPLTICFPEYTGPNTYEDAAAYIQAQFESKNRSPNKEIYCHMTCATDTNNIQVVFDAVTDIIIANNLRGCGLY

What follows are compounds tested against Guanine nucleotide-binding protein G(o) subunit alpha (Homo sapiens) (UniProt P09471) (assay: RGS7-Galphao binding modulators, primary screen, biochemical, multiplexed bead flow cytometry (AID 1439;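 further: fluorescent Galphao held in activated GDP-AlF4 state binding bead-coupled RGS7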)). Settings: at 10 µM, actives lie on both sides.

Structure (SMILES) | binding response (% of control)
Cc1cc2oc(C(=O)Nc3ccc(S(=O)(=O)Nc4onc(C)c4C)cc3)cc(=O)c2cc1Cl | inconclusive: 88%
O=C(O)c1ccc(N/N=C2/CCCc3ccccc32)cc1 | inconclusive: 143%
Cc1c(NC(=O)CN2c3ccccc3CC2C)c(=O)n(-c2ccccc2)n1C (stereo not given) | inconclusive: 107%
CCN(Cc1ccncc1)C(=O)c1ccc2c(c1)S(=O)(=O)c1ccccc1C2=O | inconclusive: 88.7%
Cn1ncc2c(O/N=C(\N)c3ccc(C(F)(F)F)cc3)ncnc21 | inconclusive: 51.6%
NC(=O)Cn1nc2sc3ccccc3n2c(=O)c1=O | inconclusive: 91.5%
COc1ccc(C(=O)OCC(=O)NCc2ccccc2)c(OC)c1OC | inconclusive: 78.5%
Cc1nn(-c2ccccc2)c(Cl)c1/C=C1\SC(=S)N(CCCCCC(=O)O)C1=O | inconclusive: 106%
Cc1cccc(-c2nc(C#N)c(NCc3ccco3)o2)c1 | inconclusive: 112%
CC(=O)c1cccc(CN2CCN(C(C)C)C(CCO)C2)c1 (stereo not given) | inactive: 91.6%
O=C(c1ccco1)N1N=C2CCCCCC2C1(O)C(F)(F)F (stereo not given) | inactive: 107%
Cc1cc(C(=O)Nc2ccc(F)cc2C)n(-c2ccccc2)n1 | inconclusive: 76.2%
CCc1nc2ccccc2c(C(=O)OCC(=O)Nc2cccc(S(=O)(=O)NC3=NCCCCC3)c2)c1C | inconclusive: 65%
O=C(CCCN1C(=O)c2ccccc2C1=O)Nc1ccccc1 | inconclusive: 31.7%
CCOC(=O)C1=C(C)NC(=O)NC1c1cccc(OC)c1OCc1ccccc1Cl (stereo not given) | inactive: 111%
Cc1ccc(-c2nnc(Nc3ccc(CC(N)=O)cc3)c3ccccc23)cc1S(=O)(=O)NCC1CCCO1 (stereo not given) | inconclusive: 86.7%
CC(C)(C)OC(=O)N1CCC2(CC1)Oc1ccc(F)cc1C(=O)C21CC(c2cccnc2)=NO1 (stereo not given) | inconclusive: 100%
C/C(=N\Nc1ccc(Cl)c(C(=O)O)c1)c1cccc([N+](=O)[O-])c1 | inconclusive: 109%
COC(=O)c1ccc(C23CC4(C2)[C@H](CN(C)[C@@H]4c2ccccc2)C3c2ccccc2)cc1 (stereo not given in full) | inconclusive: 97.7%
C#CCOC(=O)Nc1ccc(OCC(F)(F)F)nc1 | inconclusive: 110%
O=C(/C=C/c1ccccc1)Nc1sc2c(c1C(=O)O)CCC2 | inconclusive: 135%
CC(C)(O)C#Cc1ccc(CN2CCN(Cc3ccccc3)C(CCO)C2)s1 (stereo not given) | inactive: 98.2%
COc1cc(OC)nc(NC(=O)NS(=O)(=O)c2ccc(OC(F)(F)F)cc2)n1 | inactive: 103%
O=C(N/N=C/c1cc(Br)cs1)c1ccc2c(c1)OCCO2 | inconclusive: 113%
CCCCCc1nc2c(c(=O)c3ccccc3n2C)c(=O)n1Cc1ccc(OC)cc1 | inconclusive: 213%
CC(C)(C)CC(=O)O/N=C(\N)c1ccccn1 | inactive: 105%
Cc1nc(-c2ccccc2)sc1C(=O)NN | inconclusive: 114%
Cc1ccc(C(=O)NCCCn2ccnc2)cc1[N+](=O)[O-] | inactive: 104%

Structure (SMILES) | binding response (% of control)
COc1ccc(C(CNC(=O)COc2ccc(Br)cc2F)N2CCCC2)cc1 (stereo not given) | inconclusive: 158%
COc1ccc(Cl)cc1NC(=O)N1CCN(c2ccccc2OC)CC1 | inconclusive: -30.8%
CCCCCCN(C(=O)CCCCCN1C(=O)NC(c2ccc(C(C)(C)C)cc2)C(C(=O)OCc2ccccc2)=C1C)C(C(=O)NCCCC)c1ccc(OCC(=O)OC)c(C(=O)OC)c1 (stereo not given) | inconclusive: 121%
CCN1c2cccc3cccc(c23)S1(=O)=O | active: 155% [activator]
COc1ccc(OCc2nnc(SCC(=O)c3ccccc3)o2)cc1 | inactive: 99.1%
C#Cc1ccc([C@H]2C=C(C(=O)NCc3ccccc3)O[C@@H](OCC)[C@@H]2CCCO)cc1 | inactive: 101%
Cc1ccsc1C(=O)C1CCCN(Cc2cc(F)ccc2-n2cccn2)C1 (stereo not given) | inactive: 107%
Cc1nn(CCCC(=O)N2CCN(c3ccc(F)cc3)CC2)c(C)c1[N+](=O)[O-] | active: 19.3%
O=C1CCCN1CCCNc1ncnc2sccc12 | inconclusive: 107%
COc1ccc(S(=O)(=O)NCC2CCC(C(=O)NCC(OC)OC)CC2)cc1 (stereo not given) | inactive: 102%
CCC(=O)N1CCN(c2ccccc2NC(=O)c2ccc(OC)c(Cl)c2)CC1 | inactive: 94.6%
COC(=O)c1cccc(-n2c(CCC(=O)O)ccc2-c2cccs2)c1 | inconclusive: 189%
CCOc1ccc(CCN2CN(C3CCCCC3)CNC2=S)cc1OCC | inconclusive: 94.6%
C/C(=N\NC(=O)c1nn(C)c(C)c1Br)c1cccc(NC(=O)c2ccc(F)cc2)c1 | inactive: 112%
O=C1CSC(c2ccncc2)N1Cc1ccccc1 (stereo not given) | inconclusive: 90.8%
COc1ccc(S(=O)(=O)N(C)C)cc1NC(=O)CSc1nnc(-c2cccnc2)o1 | inconclusive: 74.8%
Cc1ccc(C2(O)C(=O)c3ccccc3C2=O)c(O)c1C | inconclusive: 126%
Cc1cccc2cc3cccc(C)c3nc12 | inconclusive: 82.9%
O=C(c1cccc(Cl)c1)N1CCC(c2nc3ccccc3[nH]2)CC1 | inconclusive: 107%
Cc1ccc2c(c1C)NC(=O)C21N2CCCC2C(C(=O)c2ccc3ccccc3c2)C12C(=O)Nc1ccccc12 (stereo not given) | inconclusive: 108%
CCC1=C(OC(=O)N(CC)CC)N2C(=O)OC(=NCC(=O)OC)[C@]2(Cc2ccccc2)[C@H]2C1=CC[C@H]1C(=O)N(C)C(=O)[C@H]12 | inconclusive: 104%
CSc1nsc2nc(=O)c(/C=C3\C=Nc4ccccc43)c(N)n12 | inconclusive: 88.5%
CCCN(Cc1cc2cc(C)ccc2[nH]c1=O)C(=O)c1ccccn1 | inconclusive: 60%
Cc1cccc(NC(=O)N2CCCC2C(=O)Nc2ccccc2)c1 (stereo not given) | inactive: 103%
CCCc1cc(=O)[nH]c(SCc2ccc(F)cc2)n1 | inconclusive: 133%
NC(=O)CC(NC(=O)Cc1cccc2ccccc12)c1ccc(NCc2ccccn2)c([N+](=O)[O-])c1 (stereo not given) | inconclusive: 94.4%
O=c1oc2ccccc2c(Nc2ccccc2)c1CN1CCCCC1 | inconclusive: 96.2%

Molecules from the list above containing an aryl thioether with sulfur outside any ring (4):
Structure (SMILES) | binding response (% of control)
COc1ccc(OCc2nnc(SCC(=O)c3ccccc3)o2)cc1 | inactive: 99.1%
COc1ccc(S(=O)(=O)N(C)C)cc1NC(=O)CSc1nnc(-c2cccnc2)o1 | inconclusive: 74.8%
CSc1nsc2nc(=O)c(/C=C3\C=Nc4ccccc43)c(N)n12 | inconclusive: 88.5%
CCCc1cc(=O)[nH]c(SCc2ccc(F)cc2)n1 | inconclusive: 133%
